Results reported in publication PMC5495492.
No constants are given. Whether binding was seen depends on the method and setting. For some assays here: In cells and extracts the contact can be indirect. Some results given as binding are weak or reduced against the parent protein; the word gives no strength. Sequences can lack the tags named with a protein.

T1: TCP4, full length, Gal4 fusion for yeast two-hybrid (Arabidopsis thaliana) (UniProt Q8LPR5)
T1 sequence: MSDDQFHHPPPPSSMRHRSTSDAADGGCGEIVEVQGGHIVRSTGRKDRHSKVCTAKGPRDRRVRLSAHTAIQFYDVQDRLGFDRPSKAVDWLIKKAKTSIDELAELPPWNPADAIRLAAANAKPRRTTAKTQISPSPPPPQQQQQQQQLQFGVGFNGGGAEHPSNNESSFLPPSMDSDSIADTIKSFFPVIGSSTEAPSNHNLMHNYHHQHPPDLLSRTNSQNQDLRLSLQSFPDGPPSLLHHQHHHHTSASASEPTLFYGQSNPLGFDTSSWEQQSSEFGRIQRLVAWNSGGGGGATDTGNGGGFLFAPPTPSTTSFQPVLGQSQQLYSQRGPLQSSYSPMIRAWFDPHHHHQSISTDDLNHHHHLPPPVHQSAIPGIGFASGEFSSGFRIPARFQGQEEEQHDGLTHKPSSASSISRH

T2: HA-mTCP4 (Arabidopsis thaliana) (UniProt Q8LPR5)
T2 sequence: T1 sequence

T3: YFP^n-mTCP4 (full-length mTCP4 fused to the N-terminal half of enhanced YFP) (Arabidopsis thaliana) (UniProt Q8LPR5)
T3 sequence: T1 sequence

B1: GIGANTEA (GI), full length, Gal4 fusion for yeast two-hybrid (protein, UniProt Q9SQI2 1-1173)
chain: MASSSSSERWIDGLQFSSLLWPPPRDPQQHKDQVVAYVEYFGQFTSEQFPDDIAELVRHQYPSTEKRLLDDVLAMFVLHHPEHGHAVILPIISCLIDGSLVYSKEAHPFASFISLVCPSSENDYSEQWALACGEILRILTHYNRPIYKTEQQNGDTERNCLSKATTSGSPTSEPKAGSPTQHERKPLRPLSPWISDILLAAPLGIRSDYFRWCSGVMGKYAAGELKPPTIASRGSGKHPQLMPSTPRWAVANGAGVILSVCDDEVARYETATLTAVAVPALLLPPPTTSLDEHLVAGLPALEPYARLFHRYYAIATPSATQRLLLGLLEAPPSWAPDALDAAVQLVELLRAAEDYASGVRLPRNWMHLHFLRAIGIAMSMRAGVAADAAAALLFRILSQPALLFPPLSQVEGVEIQHAPIGGYSSNYRKQIEVPAAEATIEATAQGIASMLCAHGPEVEWRICTIWEAAYGLIPLNSSAVDLPEIIVATPLQPPILSWNLYIPLLKVLEYLPRGSPSEACLMKIFVATVETILSRTFPPESSRELTRKARSSFTTRSATKNLAMSELRAMVHALFLESCAGVELASRLLFVVLTVCVSHEAQSSGSKRPRSEYASTTENIEANQPVSNNQTANRKSRNVKGQGPVAAFDSYVLAAVCALACEVQLYPMISGGGNFSNSAVAGTITKPVKINGSSKEYGAGIDSAISHTRRILAILEALFSLKPSSVGTPWSYSSSEIVAAAMVAAHISELFRRSKALTHALSGLMRCKWDKEIHKRASSLYNLIDVHSKVVASIVDKAEPLEAYLKNTPVQKDSVTCLNWKQENTCASTTCFDTAVTSASRTEMNPRGNHKYARHSDEGSGRPSEKGIKDFLLDASDLANFLTADRLAGFYCGTQKLLRSVLAEKPELSFSVVSLLWHKLIAAPEIQPTAESTSAQQGWRQVVDALCNVVSATPAKAAAAVVLQAERELQPWIAKDDEEGQKMWKINQRIVKVLVELMRNHDRPESLVILASASDLLLRATDGMLVDGEACTLPQLELLEATARAIQPVLAWGPSGLAVVDGLSNLLKCRLPATIRCLSHPSAHVRALSTSVLRDIMNQSSIPIKVTPKLPTTEKNGMNSPSYRFFNAASIDWKADIQNCLNWEAHSLLSTTMPTQFLDTAARELGCTISLSQ
B2: N-terminal half of GI (GI-N; amino acid residues 1-391), Gal4 fusion for yeast two-hybrid (domain or fragment, UniProt Q9SQI2 1-391)
chain: MASSSSSERWIDGLQFSSLLWPPPRDPQQHKDQVVAYVEYFGQFTSEQFPDDIAELVRHQYPSTEKRLLDDVLAMFVLHHPEHGHAVILPIISCLIDGSLVYSKEAHPFASFISLVCPSSENDYSEQWALACGEILRILTHYNRPIYKTEQQNGDTERNCLSKATTSGSPTSEPKAGSPTQHERKPLRPLSPWISDILLAAPLGIRSDYFRWCSGVMGKYAAGELKPPTIASRGSGKHPQLMPSTPRWAVANGAGVILSVCDDEVARYETATLTAVAVPALLLPPPTTSLDEHLVAGLPALEPYARLFHRYYAIATPSATQRLLLGLLEAPPSWAPDALDAAVQLVELLRAAEDYASGVRLPRNWMHLHFLRAIGIAMSMRAGVAADAAAA
B3: GI-3F6H (35S:GI-6H3F) (protein, UniProt Q9SQI2 1-1173)
chain: B1 chain
B4: TCP3, full length, fused to YFP^c (protein, UniProt Q9MAH8 1-391)
chain: MAPDNDHFLDSPSPPLLEMRHHQSATENGGGCGEIVEVQGGHIVRSTGRKDRHSKVCTAKGPRDRRVRLSAPTAIQFYDVQDRLGFDRPSKAVDWLITKAKSAIDDLAQLPPWNPADTLRQHAAAAANAKPRKTKTLISPPPPQPEETEHHRIGEEEDNESSFLPASMDSDSIADTIKSFFPVASTQQSYHHQPPSRGNTQNQDLLRLSLQSFQNGPPFPNQTEPALFSGQSNNQLAFDSSTASWEQSHQSPEFGKIQRLVSWNNVGAAESAGSTGGFVFASPSSLHPVYSQSQLLSQRGPLQSINTPMIRAWFDPHHHHHHHQQSMTTDDLHHHHPYHIPPGIHQSAIPGIAFASSGEFSGFRIPARFQGEQEEHGGDNKPSSASSDSRH
B5: TCP5, full length, fused to YFP^c (protein, UniProt Q9FME3 1-360)
chain: MRSGECDEEEIQAKQERDQNQNHQVNLNHMLQQQQPSSVSSSRQWTSAFRNPRIVRVSRTFGGKDRHSKVCTVRGLRDRRIRLSVPTAIQLYDLQDRLGLSQPSKVIDWLLEAAKDDVDKLPPLQFPHGFNQMYPNLIFGNSGFGESPSSTTSTTFPGTNLGFLENWDLGGSSRTRARLTDTTTTQRESFDLDKGKWIKNDENSNQDHQGFNTNHQQQFPLTNPYNNTSAYYNLGHLQQSLDQSGNNVTVAISNVAANNNNNLNLHPPSSSAGDGSQLFFGPTPPAMSSLFPTYPSFLGASHHHHVVDGAGHLQLFSSNSNTASQQHMMPGNTSLIRPFHHLMSSNHDTDHHSSDNESDS
B6: TCP2, full length, fused to YFP^c (protein, UniProt Q93V43 1-365)
chain: MIGDLMKNNNNGDVVDNEVNNRLSRWHHNSSRIIRVSRASGGKDRHSKVLTSKGPRDRRVRLSVSTALQFYDLQDRLGYDQPSKAVEWLIKAAEDSISELPSLNNTHFPTDDENHQNQTLTTVAANSLSKSACSSNSDTSKNSSGLSLSRSELRDKARERARERTAKETKERDHNHTSFTDLLNSGSDPVNSNRQWMASAPSSSPMEYFSSGLILGSGQQTHFPISTNSHPFSSISDHHHHHPHHQHQEFSFVPDHLISPAESNGGAFNLDFNMSTPSGAGAAVSAASGGGFSGFNRGTLQSNSTNQHQSFLANLQRFPTSESGGGPQFLFGALPAENHHHNHQFQLYYENGCRNSSEHKGKGKN
B7: TCP17, full length, fused to YFP^c (protein, UniProt Q9LEZ9 1-242)
chain: MGIKKEDQKSSLSLLTQRWNNPRIVRVSRAFGGKDRHSKVCTVRGLRDRRIRLSVMTAIQVYDLQERLGLSQPSKVIDWLLEVAKNDVDLLPPLQFPPGFHQLNPNLTGLGESFPGVFDLGRTQREALDLEKRKWVNLDHVFDHIDHHNHFSNSIQSNKLYFPTITSSSSSYHYNLGHLQQSLLDQSGNVTVAFSNNYNNNNLNPPAAETMSSLFPTRYPSFLGGGQLQLFSSTSSQPDHIE
B8: TCP10, full length, fused to YFP^c (protein, UniProt O82277 1-361)
chain: MGLKGYSVGEGGGEIVEVQGGHIIRATGRKDRHSKVFTSKGPRDRRVRLSAHTAIQFYDVQDRLGYDRPSKAVDWLIKKAKTAIDKLELGETTTTTTRQEPVNTKPESPTLVFQRENNDQTQFVAANLDPEDAMKTFFPATTTTNGGGGTNINFQNYPHQDDNNMVSRTTTPPPNLSQDLGLSLHPFQGNNNTVVVPETNNFTTTHFDTFGRISGWNHHDLTMTSSSSSEHQQQEQEERSNGGFMVNHHPHHHHHQPSMMTLLNSQQQQVFLGGQQQQQQRGTLQSSLFPHSFRSWDHHQTTSDHHHHQNQASSMFASSSQYGSHGMMMMQGLSFPNTTRLLHGEEATQPNSSSSPPNSHL
B9: YFP^c-GI (full-length GI fused to the C-terminal half of enhanced YFP) (protein, UniProt Q9SQI2 1-1173)
chain: B1 chain
B10: TCP24, full length, fused to YFP^c (protein, UniProt Q9C758 1-324)
chain: MEVDEDIELQKHQEQQSRKLQRFSEDNTGLMRNWNNPSSRIIRVSRASGGKDRHSKVLTSKGLRDRRIRLSVATAIQFYDLQDRLGFDQPSKAVEWLINAASDSITDLPLLNTNFDHLDQNQNQTKSACSSGTSESSLLSLSRTEIRGKARERARERTAKDRDKDLQNAHSSFTQLLTGGFDQQPSNRNWTGGSDCFNPVQLQIPNSSSQEPMNHPFSFVPDYNFGISSSSSAINGGYSSRGTLQSNSQSLFLNNNNNITQRSSISSSSSSSSPMDSQSISFFMATPPPLDHHNHQLPETFDGRLYLYYGEGNRSSDDKAKERR
B11: TCP13, full length, fused to YFP^c (protein, UniProt Q9S7W5 1-355)
chain: MNIVSWKDANDEVAGGATTRREREVKEDQEETEVRATSGKTVIKKQPTSISSSSSSWMKSKDPRIVRVSRAFGGKDRHSKVCTLRGLRDRRVRLSVPTAIQLYDLQERLGVDQPSKAVDWLLDAAKEEIDELPPLPISPENFSIFNHHQSFLNLGQRPGQDPTQLGFKINGCVQKSTTTSREENDREKGENDVVYTNNHHVGSYGTYHNLEHHHHHHQHLSLQADYHSHQLHSLVPFPSQILVCPMTTSPTTTTIQSLFPSSSSAGSGTMETLDPRQMVSHFQMPLMGNSSSSSSQNISTLYSLLHGSSSNNGGRDIDNRMSSVQFNRTNSTTTANMSRHLGSERCTSRGSDHHM

Biological target: T1, TCP4, full length, Gal4 fusion for yeast two-hybrid (Arabidopsis thaliana)
Assay: two-hybrid; Gal4 DBD and AD fusions in yeast; TCP4 and FBH1 in the bait vector pASGW-attR; growth on -LWH (for TCP4 also -LWH + 10 mM 3-aminotriazole) against -LW

binding	Binder
binds	B1
binds	B2

Biological target: T2, HA-mTCP4 (Arabidopsis thaliana)
Assay: co-IP; 35S:HA-mTCP4 and 35S:GI-6H3F infiltrated into N. benthamiana plants grown in LD; co-IP as in ref. 67

binding	Binder
binds	B3

Biological target: T3, YFP^n-mTCP4 (full-length mTCP4 fused to the N-terminal half of enhanced YFP) (Arabidopsis thaliana)
Assay: split reporter; BiFC with halves of enhanced YFP, co-expressed by agroinfiltration in N. benthamiana leaf epidermal cells; confocal imaging 2-3 days after infiltration; H2B-RFP as nuclear marker; positive when more than 70% of H2B-RFP positive cells showed YFP

binding	Binder
binds	B4
binds	B5
binds	B6
binds	B7
binds	B8
binds	B9
binds	B10
binds	B11
